Measured values: patent publication US20200000872A1, “A COMPOSITION COMPRISING AT LEAST ONE GNRH ANTAGONIST” (ANTEV LIMITED, priority 2017, published 2020)
Structures can show the parent of a compound that is named as a salt. Not every detail of the peptide structures is certain; ends, links or a residue may be inferred. Non-standard residues stand in square brackets, D forms with d. Residues, ends and D or L forms follow the SMILES beside them. Phe(4-Cl) = N[C@@H](Cc1ccc(Cl)cc1)C(=O)O; dPhe(4-Cl) = N[C@H](Cc1ccc(Cl)cc1)C(=O)O; d2Nal = N[C@H](Cc1ccc2ccccc2c1)C(=O)O; d(hCit) = NC(=O)NCCCC[C@@H](N)C(=O)O; Lys(iPr) = CC(C)NCCCC[C@H](N)C(=O)O; d3Pal = N[C@H](Cc1cccnc1)C(=O)O

Tests used:
Format in all cases: in vivo, human
testosterone [1] = assay: Phase II study (A014), 2 x 90 mg i.m. Days 1 and 8: testosterone suppression / castration
testosterone [2] = assay: Phase I study EP-24332T-A004, repeated s.c. injections: testosterone suppression; details: for mean level of testosterone, % of the baseline value: maintained for more than 4 weeks
LH, testosterone, FSH = assay: Phase I study D-84812-Z012, single s.c. injection: pharmacodynamics (hormone suppression)
[3] = 2 x 90 mg i.m., ITT and PP datasets
[4] = 2 x 90 mg i.m., ITT and PP datasets, listed as Teverelix LA

CC(=O)N[C@H](Cc1ccc2ccccc2c1)C(=O)N[C@H](Cc1ccc(Cl)cc1)C(=O)N[C@H](Cc1cccnc1)C(=O)N[C@@H](CO)C(=O)N[C@@H](Cc1ccc(O)cc1)C(=O)N[C@H](CCCCNC(N)=O)C(=O)N[C@@H](CC(C)C)C(=O)N[C@@H](CCCCNC(C)C)C(=O)N1CCC[C@H]1C(=O)N[C@H](C)C(N)=O [Teverelix TFA, teverelix trifluoroacetate] (Ac-[d2Nal][dPhe(4-Cl)][d3Pal]SY[d(hCit)]L[Lys(iPr)]P[dA]-NH2)
DC (duration of castration), mean (testosterone [1]; [3]): 34.77 days
DC, median (testosterone [1]; [3]): 34.90 days
Tcast (time of onset of castration), mean (testosterone [1]; [3]): 2.40 days
Tcast, median (testosterone [1]; [3]): 1.30 days
Tesc (time of escape from castration), mean (testosterone [1]; [3]): 46.17 days
Tesc, median (testosterone [1]; [3]): 46.20 days
DC (duration of castration), mean (testosterone [1]; [4]): 34.77 days Days
Tcast (time of onset of castration), mean (testosterone [1]; [4]): 2.40 days Days
Tesc (time of escape from castration), mean (testosterone [1]; [4]): 46.17 days Days
testosterone concentrations during breakthrough episodes (testosterone [1]; all instances): below 2 ng/mL
mean testosterone level (testosterone [2]; 90 mg s.c. on D1, D2, D3, 6 subjects): above castration level
hormone suppression over a long period (LH, testosterone, FSH; low doses of 10 mg and 30 mg, single s.c.): insufficient
duration of at least half-maximum testosterone suppression (LH, testosterone, FSH; single s.c. injection, healthy male volunteers): increased with dose

CC(=O)N[C@H](Cc1ccc2ccccc2c1)C(=O)N[C@@H](Cc1ccc(Cl)cc1)C(=O)N[C@H](Cc1cccnc1)C(=O)N[C@@H](CO)C(=O)N[C@H](Cc1ccc(O)cc1)C(=O)N[C@H](CCCCNC(N)=O)C(=O)N[C@@H](CC(C)C)C(=O)N[C@@H](CCCCNC(C)C)C(=O)N1CCC[C@H]1C(=O)N[C@H](C)C(N)=O [teverelix, Ac-D-Nal-D-pClPhe-D-Pal-Ser-Tyr-D-Hci-Leu-Lys(iPr)-Pro-D-Ala-NH2] (Ac-[d2Nal][Phe(4-Cl)][d3Pal]S[dY][d(hCit)]L[Lys(iPr)]P[dA]-NH2)
patients with Tcast within 2 days of the first dose (testosterone [1]; 2 x 90 mg i.m.): 11/14
DC (duration of castration), mean (testosterone [1]; [3]): 34.77 (9.28) Days
Tcast (time of onset of castration), mean (testosterone [1]; [3]): 2.40 (2.52) Days
Tesc (time of escape from castration), mean (testosterone [1]; [3]): 46.17 (10.88) Days
testosterone decrease from baseline (testosterone [1]; Day 2, after first 90 mg i.m. dose): approximately 83%
testosterone concentration, all patients (biochemical castration) (testosterone [1]; by Day 9): < 0.5 ng/mL
DC, Patient 08 (testosterone [1]; estimated): 26.0 days
Tcast, Patient 03 (testosterone [1]; estimated): 8.0 days
Tcast, Patient 06 (testosterone [1]; estimated): 6.0 days
Tcast, Patient 09 (testosterone [1]; estimated): 6.9 days
individual serum testosterone concentrations, all patients except Patient 01 (testosterone [1]; until at least the end of Week 5): below 2 ng/mL
mean level of testosterone, % of the baseline value (testosterone [2]; 60 mg/60 mg s.c. group): 40%
mean level of testosterone, % of the baseline value (testosterone [2]; 90 mg/90 mg s.c. group): 60%
